According to US20110039770A1, “INHIBITORS OF PROTEIN KINASE C ISOFORMS AND USES THEREOF” (PHARMAGAP INC., priority 2005, published 2011):
Entries after “also recorded” stand apart in the source; their conditions may differ. At least one compound was matched to its structure with a doubt left. Some compounds share one wording; it may come from a single statement. Where a SMILES comes first, the peptide text is derived from it. Bridges are numbered along the chain shown (N, C = ends). Roman numbers before positions name the chains, in order. [ ]: non-standard residue; d: D form. The star is where a group is joined. PNA(A) = NCCN(CC(=O)*)C(=O)Cn1cnc2c(N)ncnc21; Adenin9ylacetyl = Nc1ncnc2c1ncn2CC(=O)*; Gly(N-2-aminoethyl) = NCCNCC(=O)O

Legend:
[1] = test system: MCF-7 breast cancer cell line; test: Cell death 24 h after pinocytic incorporation of PKI compound; format: cell-based, human
[2] = test system: DU-145 prostate cancer cell line; test: as above; format: cell-based, human; conditions: Du145
[3] = test system: MDA-MB-231 breast cancer cell line; test: Apoptosis by Hoechst nuclear staining; format: cell-based, human; conditions: 50, 250 and 500
[4] = test system: SKOV-3 ovarian cancer cell line; test: Cell death 24 h after pinocytic incorporation of PKI compound; format: cell-based, human
[5] = test system: T-24 bladder cancer cell line; test: as above; format: cell-based, human; conditions: T24
[6] = test system: MDA-MB-231 breast cancer cell line; test: as above; format: cell-based, human
[7] = test system: LNCap prostate cancer cell line; test: as above; format: cell-based, human
PKC-alpha = test: IQ PKC assay kit, PKC-alpha from IMR-32 cell lysate; format: biochemical, human; conditions: various doses
PKC alpha = PKC alpha (Homo sapiens, UniProt P17252); test: IQ PKC assay kit, commercially purified PKC-alpha; format: biochemical; conditions: 10 μg per assay
[8] = test system: LS-180 colon cancer cell line; test: Cell death 24 h after pinocytic incorporation of PKI compound; format: cell-based, human; conditions: LS180
[9] = test system: H-661 non-small cell lung cancer cell line; test: as above; format: cell-based, human; conditions: H661
[10] = test system: U-251 glioblastoma cell line; test: as above; format: cell-based, human; conditions: U251
[11] = test system: NCI H-661 non-small cell lung cancer cell line; test: Apoptosis by Hoechst nuclear staining; format: cell-based, human; conditions: 50, 250 and 500
[12] = test system: IMR-32 neuroblastoma cell line; test: Cell death 24 h after pinocytic incorporation of PKI compound; format: cell-based, human; conditions: IMR32
MDA-MB-231 cells = test: Matrigel invasion chamber assay (basal invasion, FBS attractant); format: cell-based, human; conditions: MDA-MB-231; Matrigel
[13] = test system: IMR-32 human neuroblastoma cells; conditions: high concentrations
Procedure: The ability of compounds PKI 1, PKI 2 and PKI 3 to inhibit cancer cell proliferation was tested in vitro using the human neuroblastoma cell line IMR-32. Monolayer cell cultures were trypsinized and the test compound was added at the doses indicated in Table 24 and internalized by pinocytic endocytosis using Influx TM pinocytic cell-loading reagent, a kit from Molecular Probes (Eugene, Oreg.) following the manufacturer's recommendations. The indicated doses refer to the concentration in the loading medium, which was used on 1×10^6 cells in a 10 μl volume, i.e. contained 10 μg to 100 ug of test compound that provides […] per cell. […] The cells were treated on day 0 of the experiment. The cells loaded with test compound were cultured in 96 well plates (5,000 cells in 100 μl per well), and the proliferation was monitored over 3 consecutive days. The increase in cell population was quantified using a Hoechst reagent-based assay (modified from Rao and Otto, 1992, Analytical Biochem. 207:186-192) that measures the total DNA of the population. Fluorescence was measured using a Millipore CytoFluor 2350 plate reader (excitation at 360 nm and emission at 460 nm). The measurements were obtained as relative fluorescence intensity, a value that is directly correlated to the total number of cells. […]

PKC enzymes (cPKCs) = test: Phosphorylation of MARCKS peptide by endogenous PKCs in IMR-32 cells; format: cell-based, human; conditions: 30 min
[14] = compound at 10 mM, 24 h after pinocytic incorporation

CC(=O)N[C@@H](Cc1ccccc1)C(=O)N[C@@H](CCCNC(=N)N)C(=O)N[C@@H](CCCNC(=N)N)C(=O)N[C@@H](CCCCNC(=O)CN(CCN)C(=O)Cn1cnc2c(N)ncnc21)C(=O)N[C@@H](Cc1ccccc1)C(=O)N[C@@H](CCCNC(=N)N)C(=O)N[C@@H](CC(C)C)C(N)=O [PKI 3] (Ac-FRRK(PNA(A))FRL-NH2; C-terminus assumed)
Percentage Cell Death at 24 h ([1]; 5 mM): 25% | Percentage Cell Death at 24 h [1, 14]: 15% | Percentage Cell Death at 24 h ([2]; 5 mM): 29% | Percentage Cell Death at 24 h [2, 14]: 32% | apoptosis (chromatin packing, Hoechst) [3]: apoptotic signals were triggered | Percentage Cell Death at 24 h ([4]; 5 mM): 5% | Percentage Cell Death at 24 h [4, 14]: 16% | Percentage Cell Death at 24 h ([5]; 5 mM): 1% | Percentage Cell Death at 24 h [5, 14]: 22% | Percentage Cell Death at 24 h ([6]; 5 mM): 1% | Percentage Cell Death at 24 h [6, 14]: 21% | Percentage Cell Death at 24 h ([7]; 5 mM): 3% | Percentage Cell Death at 24 h [7, 14]: 22% | inhibition of PKC-alpha in IMR-32 cell lysate (PKC-alpha): good activity at 1 μg | inhibition of purified PKC-alpha activity (PKC alpha): showed inhibitory activity; also recorded: drastically inhibits | Percentage Cell Death at 24 h ([8]; 5 mM): 9% | Percentage Cell Death at 24 h [8, 14]: 12% | Percentage Cell Death at 24 h ([9]; 5 mM): 1% | Percentage Cell Death at 24 h [9, 14]: 19% | Percentage Cell Death at 24 h ([10]; 5 mM): 7% | Percentage Cell Death at 24 h [10, 14]: 14% | apoptosis (chromatin packing, Hoechst) [11]: apoptotic signals were triggered | Percentage Cell Death at 24 h ([12]; 5 mM): 19% | Percentage Cell Death at 24 h [12, 14]: 21% | % Inhibition of Invasion (MDA-MB-231 cells): 29.8%

CC(=O)N[C@@H](CC(C)C)C(=O)N[C@@H](CCCNC(=N)N)C(=O)N[C@@H](CCCNC(=N)N)C(=O)N[C@@H](C)C(=O)N[C@@H](CCCCNC(=O)CN(CCN)C(=O)Cn1cnc2c(N)ncnc21)C(=O)N[C@@H](CC(C)C)C(=O)NCC(N)=O [PKI 2] (Ac-LRRAK(PNA(A))LG-NH2; C-terminus assumed)
Percentage Cell Death at 24 h ([1]; 5 mM): 3% | Percentage Cell Death at 24 h [1, 14]: 29% | Percentage Cell Death at 24 h ([2]; 5 mM): 1% | Percentage Cell Death at 24 h [2, 14]: 8% | Percentage Cell Death at 24 h ([4]; 5 mM): 2% | Percentage Cell Death at 24 h [4, 14]: 14% | Percentage Cell Death at 24 h ([5]; 5 mM): 3% | Percentage Cell Death at 24 h [5, 14]: 3% | Percentage Cell Death at 24 h ([6]; 5 mM): 8% | Percentage Cell Death at 24 h [6, 14]: 13% | Percentage Cell Death at 24 h ([7]; 5 mM): 13% | Percentage Cell Death at 24 h [7, 14]: 11% | inhibition of PKC-alpha in IMR-32 cell lysate (PKC-alpha): good activity but no dose response was observed | inhibition of purified PKC-alpha activity (PKC alpha): showed inhibitory activity | Percentage Cell Death at 24 h ([8]; 5 mM): 48% | Percentage Cell Death at 24 h [8, 14]: 52% | Percentage Cell Death at 24 h ([9]; 5 mM): 6% | Percentage Cell Death at 24 h [9, 14]: 34% | Percentage Cell Death at 24 h ([10]; 5 mM): 31% | Percentage Cell Death at 24 h [10, 14]: 32% | Percentage Cell Death at 24 h ([12]; 5 mM): 0% | Percentage Cell Death at 24 h [12, 14]: 0% | % Inhibition of Invasion (MDA-MB-231 cells): 2.0%

CC[C@H](C)[C@H](NC(=O)[C@H](CSSC[C@H](NC(=O)CNC(=O)CN(CCN)C(=O)Cn1cnc2c(N)ncnc21)C(=O)N[C@@H](CCCCN)C(=O)NCC(=O)N[C@@H](CCCCN)C(=O)N[C@@H](Cc1ccccc1)C(=O)N[C@@H](CCCCN)C(=O)N[C@@H](CCCNC(=N)N)C(N)=O)NC(=O)[C@H](Cc1c[nH]cn1)NC(C)=O)C(=O)NCC(=O)N[C@@H](CCCNC(=N)N)C(=O)N[C@@H](Cc1ccccc1)C(=O)N[C@@H](CCCCN)C(N)=O [PKI 1] (I: Adenin9ylacetyl-[Gly(N-2-aminoethyl)]GCKGKFKR-NH2 / II: Ac-HCIGRFK-NH2; disulfide I:3-II:2; C-terminus assumed)
Percentage Cell Death at 24 h ([1]; 5 mM): 18% | Percentage Cell Death at 24 h [1, 14]: 21% | Percentage Cell Death at 24 h ([2]; 5 mM): 17% | Percentage Cell Death at 24 h [2, 14]: 14% | Percentage Cell Death at 24 h ([4]; 5 mM): 1% | Percentage Cell Death at 24 h [4, 14]: 9% | Percentage Cell Death at 24 h ([5]; 5 mM): 1% | Percentage Cell Death at 24 h [5, 14]: 4% | Percentage Cell Death at 24 h ([6]; 5 mM): 1% | Percentage Cell Death at 24 h [6, 14]: 5% | Percentage Cell Death at 24 h ([7]; 5 mM): 16% | Percentage Cell Death at 24 h [7, 14]: 19% | inhibition of PKC-alpha in IMR-32 cell lysate (PKC-alpha): good activity but no dose response was observed | inhibition of purified PKC-alpha activity (PKC alpha): showed inhibitory activity | Percentage Cell Death at 24 h ([8]; 5 mM): 1% | Percentage Cell Death at 24 h [8, 14]: 2% | Percentage Cell Death at 24 h ([9]; 5 mM): 46% | Percentage Cell Death at 24 h [9, 14]: 12% | Percentage Cell Death at 24 h ([10]; 5 mM): 7% | Percentage Cell Death at 24 h [10, 14]: 16% | Percentage Cell Death at 24 h ([12]; 5 mM): 2% | Percentage Cell Death at 24 h [12, 14]: 7% | % Inhibition of Invasion (MDA-MB-231 cells): 5.8%

CC[C@H](C)[C@H](NC(=O)[C@H](CO)NC(=O)[C@@H](NC(=O)CNC(=O)[C@@H](NC(=O)[C@H](CC(C)C)NC(=O)[C@H](CC(N)=O)NC(=O)[C@H](CCC(N)=O)NC(=O)[C@H](C)NC(=O)[C@H](CC(=O)O)NC(=O)[C@H](CCCCN)NC(=O)CNC(=O)CNC(=O)CNC(=O)CNC(=O)CNC(=O)CNC(=O)CNC(=O)[C@H](CCCNC(=N)N)NC(=O)[C@H](CCCCN)NC(=O)[C@H](Cc1ccccc1)NC(=O)[C@H](CCCCN)NC(=O)CNC(=O)[C@H](CCCCN)NC(=O)[C@H](CSSC[C@H](NC(=O)[C@H](Cc1c[nH]cn1)NC(C)=O)C(=O)N[C@H](C(=O)NCC(=O)N[C@@H](CCCNC(=N)N)C(=O)N[C@@H](CCCCN)C(=O)N[C@@H](Cc1ccccc1)C(N)=O)[C@@H](C)CC)NC(=O)CNC(=O)CN(CCN)C(=O)Cn1cnc2c(N)ncnc21)[C@@H](C)CC)[C@@H](C)CC)C(N)=O [TIM 9] (I: Adenin9ylacetyl-[Gly(N-2-aminoethyl)]GCKGKFKRGGGGGGGKDAQNLIGISI-NH2 / II: Ac-HCIGRKF-NH2; disulfide I:3-II:2)
morphology of IMR-32 cells [13]: the cells round up and die | inactivation of cPKCs (MARCKS phosphorylation) (PKC enzymes (cPKCs)): already noticeable
